# Test results reported in the supplement of paper PMC7666118.
# By UniProt entry, the sequences of proteins in these tests, tags left out. Where a name states a change or a piece, a line headed by the entry shows the natural chain unless it says otherwise.
# UniProt P13807: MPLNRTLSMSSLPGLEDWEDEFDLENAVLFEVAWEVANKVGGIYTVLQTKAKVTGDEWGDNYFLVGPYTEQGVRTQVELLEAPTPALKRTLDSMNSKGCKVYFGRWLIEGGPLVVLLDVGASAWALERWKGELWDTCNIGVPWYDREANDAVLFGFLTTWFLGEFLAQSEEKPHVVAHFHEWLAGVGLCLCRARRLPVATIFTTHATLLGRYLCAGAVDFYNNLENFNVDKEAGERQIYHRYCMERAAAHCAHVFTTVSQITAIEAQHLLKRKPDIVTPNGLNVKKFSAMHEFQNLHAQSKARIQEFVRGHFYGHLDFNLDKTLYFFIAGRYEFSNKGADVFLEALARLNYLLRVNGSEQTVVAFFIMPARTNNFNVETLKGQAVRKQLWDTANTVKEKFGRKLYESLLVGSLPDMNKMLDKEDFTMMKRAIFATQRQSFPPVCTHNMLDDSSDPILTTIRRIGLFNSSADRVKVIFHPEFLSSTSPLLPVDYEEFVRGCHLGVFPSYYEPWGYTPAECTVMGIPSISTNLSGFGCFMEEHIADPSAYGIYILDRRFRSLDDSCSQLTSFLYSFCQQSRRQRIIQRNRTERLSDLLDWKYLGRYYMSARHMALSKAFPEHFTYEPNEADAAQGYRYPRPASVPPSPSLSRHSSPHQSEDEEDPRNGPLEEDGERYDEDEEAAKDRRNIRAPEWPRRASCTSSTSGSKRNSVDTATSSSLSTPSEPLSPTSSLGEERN
# UniProt Q8N442: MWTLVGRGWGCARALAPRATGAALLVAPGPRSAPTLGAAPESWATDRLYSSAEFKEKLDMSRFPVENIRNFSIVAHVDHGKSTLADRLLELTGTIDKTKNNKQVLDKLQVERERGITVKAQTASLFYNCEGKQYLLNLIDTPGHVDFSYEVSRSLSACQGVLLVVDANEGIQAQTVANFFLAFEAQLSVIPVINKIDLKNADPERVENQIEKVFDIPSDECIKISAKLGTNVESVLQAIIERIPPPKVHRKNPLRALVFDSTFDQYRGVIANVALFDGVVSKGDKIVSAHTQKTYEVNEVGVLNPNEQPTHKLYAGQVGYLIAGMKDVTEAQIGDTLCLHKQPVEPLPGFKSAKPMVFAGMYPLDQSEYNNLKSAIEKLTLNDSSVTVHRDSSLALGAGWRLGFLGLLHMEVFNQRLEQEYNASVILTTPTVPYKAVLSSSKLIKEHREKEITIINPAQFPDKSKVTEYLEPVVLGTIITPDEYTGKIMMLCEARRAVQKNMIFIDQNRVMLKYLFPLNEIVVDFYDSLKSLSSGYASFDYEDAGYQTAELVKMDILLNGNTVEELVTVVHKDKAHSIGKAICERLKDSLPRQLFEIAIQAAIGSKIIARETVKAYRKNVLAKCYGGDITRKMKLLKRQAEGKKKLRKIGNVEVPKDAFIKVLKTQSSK
# UniProt P62873, whole entry: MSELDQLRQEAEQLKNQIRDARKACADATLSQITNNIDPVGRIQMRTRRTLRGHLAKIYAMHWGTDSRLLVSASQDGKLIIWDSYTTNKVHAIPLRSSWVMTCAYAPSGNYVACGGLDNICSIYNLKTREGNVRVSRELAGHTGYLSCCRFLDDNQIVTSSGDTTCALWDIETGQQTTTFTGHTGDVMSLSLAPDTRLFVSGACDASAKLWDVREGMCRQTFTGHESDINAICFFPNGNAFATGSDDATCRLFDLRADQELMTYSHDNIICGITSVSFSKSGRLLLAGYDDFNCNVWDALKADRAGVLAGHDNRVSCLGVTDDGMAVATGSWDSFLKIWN
# UniProt Q8TDG4: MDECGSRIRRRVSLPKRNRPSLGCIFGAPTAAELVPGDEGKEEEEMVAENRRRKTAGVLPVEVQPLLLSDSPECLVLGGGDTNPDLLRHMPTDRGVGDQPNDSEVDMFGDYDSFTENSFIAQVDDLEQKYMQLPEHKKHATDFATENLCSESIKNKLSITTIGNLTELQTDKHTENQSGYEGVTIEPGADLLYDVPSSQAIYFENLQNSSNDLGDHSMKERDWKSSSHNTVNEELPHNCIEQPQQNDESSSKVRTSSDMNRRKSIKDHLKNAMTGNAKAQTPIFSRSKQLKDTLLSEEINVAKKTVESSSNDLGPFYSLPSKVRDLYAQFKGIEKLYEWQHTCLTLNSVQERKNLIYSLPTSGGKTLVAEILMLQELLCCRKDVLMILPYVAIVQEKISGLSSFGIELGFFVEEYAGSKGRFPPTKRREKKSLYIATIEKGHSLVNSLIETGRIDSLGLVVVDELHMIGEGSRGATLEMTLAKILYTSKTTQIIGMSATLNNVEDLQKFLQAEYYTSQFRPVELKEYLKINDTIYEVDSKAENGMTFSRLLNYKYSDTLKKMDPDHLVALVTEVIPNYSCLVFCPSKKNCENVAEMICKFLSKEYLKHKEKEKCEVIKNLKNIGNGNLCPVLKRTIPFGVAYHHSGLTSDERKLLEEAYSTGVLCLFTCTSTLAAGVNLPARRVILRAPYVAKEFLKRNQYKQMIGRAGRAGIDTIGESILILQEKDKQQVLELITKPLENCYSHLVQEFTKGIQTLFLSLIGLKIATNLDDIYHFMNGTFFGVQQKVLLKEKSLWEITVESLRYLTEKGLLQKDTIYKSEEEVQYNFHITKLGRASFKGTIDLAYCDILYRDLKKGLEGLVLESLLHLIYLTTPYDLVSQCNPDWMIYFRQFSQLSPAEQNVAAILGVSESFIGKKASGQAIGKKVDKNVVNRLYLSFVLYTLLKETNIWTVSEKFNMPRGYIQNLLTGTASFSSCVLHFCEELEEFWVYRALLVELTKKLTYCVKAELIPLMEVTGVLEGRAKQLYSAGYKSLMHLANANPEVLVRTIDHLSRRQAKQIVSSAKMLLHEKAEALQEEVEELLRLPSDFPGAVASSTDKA
# UniProt Q9H0R4: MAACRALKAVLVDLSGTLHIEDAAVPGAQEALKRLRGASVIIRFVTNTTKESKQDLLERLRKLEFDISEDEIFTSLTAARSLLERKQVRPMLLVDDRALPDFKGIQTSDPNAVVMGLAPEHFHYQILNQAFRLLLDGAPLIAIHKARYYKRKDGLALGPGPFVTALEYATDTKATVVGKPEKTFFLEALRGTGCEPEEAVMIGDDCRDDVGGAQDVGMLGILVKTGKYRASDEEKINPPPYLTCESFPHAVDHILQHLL
# UniProt O14908: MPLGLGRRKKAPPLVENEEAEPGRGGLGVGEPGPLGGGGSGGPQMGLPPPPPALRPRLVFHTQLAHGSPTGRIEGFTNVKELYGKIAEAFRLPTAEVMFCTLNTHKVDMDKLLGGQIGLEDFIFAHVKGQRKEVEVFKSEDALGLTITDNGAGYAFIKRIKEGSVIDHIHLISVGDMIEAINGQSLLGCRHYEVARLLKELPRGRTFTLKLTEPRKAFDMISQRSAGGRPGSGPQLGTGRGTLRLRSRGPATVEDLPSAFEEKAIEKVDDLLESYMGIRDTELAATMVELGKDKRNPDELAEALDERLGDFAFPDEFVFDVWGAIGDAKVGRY
# UniProt Q7Z4H3: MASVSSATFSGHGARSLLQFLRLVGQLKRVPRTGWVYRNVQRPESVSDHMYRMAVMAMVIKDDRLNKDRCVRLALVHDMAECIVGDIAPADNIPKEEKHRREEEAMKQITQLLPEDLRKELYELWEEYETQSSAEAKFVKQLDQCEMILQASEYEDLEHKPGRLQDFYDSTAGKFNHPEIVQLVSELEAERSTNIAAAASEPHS
# UniProt P31150: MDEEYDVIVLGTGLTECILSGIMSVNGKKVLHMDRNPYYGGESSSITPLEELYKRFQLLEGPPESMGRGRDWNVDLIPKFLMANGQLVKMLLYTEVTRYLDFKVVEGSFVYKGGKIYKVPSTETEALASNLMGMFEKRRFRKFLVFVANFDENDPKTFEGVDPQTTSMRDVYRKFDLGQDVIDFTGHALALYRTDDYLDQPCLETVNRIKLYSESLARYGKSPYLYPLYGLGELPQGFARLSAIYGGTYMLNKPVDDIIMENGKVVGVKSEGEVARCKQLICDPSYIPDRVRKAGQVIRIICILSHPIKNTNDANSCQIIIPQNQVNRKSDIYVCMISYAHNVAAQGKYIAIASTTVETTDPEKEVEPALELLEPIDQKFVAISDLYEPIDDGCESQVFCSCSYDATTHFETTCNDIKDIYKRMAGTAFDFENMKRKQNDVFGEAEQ
# UniProt P27539: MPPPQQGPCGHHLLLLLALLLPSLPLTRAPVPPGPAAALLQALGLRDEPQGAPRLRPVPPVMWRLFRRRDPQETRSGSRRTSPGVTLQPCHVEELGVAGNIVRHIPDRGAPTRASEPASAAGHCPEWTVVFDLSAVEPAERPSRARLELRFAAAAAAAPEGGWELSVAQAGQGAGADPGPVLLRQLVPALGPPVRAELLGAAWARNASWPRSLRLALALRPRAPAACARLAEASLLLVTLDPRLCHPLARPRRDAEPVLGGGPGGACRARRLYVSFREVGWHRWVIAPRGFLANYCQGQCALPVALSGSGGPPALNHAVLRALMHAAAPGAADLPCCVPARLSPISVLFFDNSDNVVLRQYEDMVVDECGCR
# UniProt Q3KR37, whole entry: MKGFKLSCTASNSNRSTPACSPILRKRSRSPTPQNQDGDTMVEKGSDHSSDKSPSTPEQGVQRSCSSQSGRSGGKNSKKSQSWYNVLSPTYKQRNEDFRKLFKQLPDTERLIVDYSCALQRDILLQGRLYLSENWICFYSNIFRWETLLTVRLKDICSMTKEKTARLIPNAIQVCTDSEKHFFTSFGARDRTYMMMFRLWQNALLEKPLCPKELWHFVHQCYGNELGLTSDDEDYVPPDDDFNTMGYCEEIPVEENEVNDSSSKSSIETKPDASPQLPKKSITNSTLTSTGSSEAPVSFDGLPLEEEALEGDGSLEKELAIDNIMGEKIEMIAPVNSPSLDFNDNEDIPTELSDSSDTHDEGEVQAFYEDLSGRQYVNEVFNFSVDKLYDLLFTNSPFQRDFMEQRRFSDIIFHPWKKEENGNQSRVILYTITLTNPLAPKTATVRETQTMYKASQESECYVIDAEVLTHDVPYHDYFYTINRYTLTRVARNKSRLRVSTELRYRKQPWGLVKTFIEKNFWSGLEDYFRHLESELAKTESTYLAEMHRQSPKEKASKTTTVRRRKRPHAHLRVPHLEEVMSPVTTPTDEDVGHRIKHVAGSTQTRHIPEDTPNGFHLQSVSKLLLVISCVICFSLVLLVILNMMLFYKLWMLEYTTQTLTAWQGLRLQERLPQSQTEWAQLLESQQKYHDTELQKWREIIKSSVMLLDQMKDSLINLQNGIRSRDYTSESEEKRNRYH
# UniProt Q9BX10: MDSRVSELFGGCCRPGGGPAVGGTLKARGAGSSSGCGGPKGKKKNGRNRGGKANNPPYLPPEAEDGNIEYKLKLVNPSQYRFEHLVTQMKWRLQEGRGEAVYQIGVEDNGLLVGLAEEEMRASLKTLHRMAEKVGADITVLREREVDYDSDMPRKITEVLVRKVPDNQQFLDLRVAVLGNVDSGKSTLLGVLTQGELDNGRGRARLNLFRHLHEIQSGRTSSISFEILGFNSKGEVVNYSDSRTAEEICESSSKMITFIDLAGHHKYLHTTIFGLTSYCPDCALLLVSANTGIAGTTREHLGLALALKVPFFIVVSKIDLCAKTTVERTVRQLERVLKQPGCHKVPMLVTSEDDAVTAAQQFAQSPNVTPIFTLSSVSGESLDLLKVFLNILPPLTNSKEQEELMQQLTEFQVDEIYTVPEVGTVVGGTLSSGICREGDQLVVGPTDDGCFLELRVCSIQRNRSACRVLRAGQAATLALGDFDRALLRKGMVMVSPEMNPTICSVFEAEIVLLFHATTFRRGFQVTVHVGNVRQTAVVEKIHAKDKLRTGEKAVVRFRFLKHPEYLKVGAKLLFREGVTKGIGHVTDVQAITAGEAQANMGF
# UniProt Q9NWZ8: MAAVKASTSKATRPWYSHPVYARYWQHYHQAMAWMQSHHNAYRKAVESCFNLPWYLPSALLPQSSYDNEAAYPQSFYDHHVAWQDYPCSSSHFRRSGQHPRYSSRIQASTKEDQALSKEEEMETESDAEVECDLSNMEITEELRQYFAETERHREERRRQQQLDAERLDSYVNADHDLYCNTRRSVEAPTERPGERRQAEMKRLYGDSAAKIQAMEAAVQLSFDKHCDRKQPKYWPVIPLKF
# UniProt P46926: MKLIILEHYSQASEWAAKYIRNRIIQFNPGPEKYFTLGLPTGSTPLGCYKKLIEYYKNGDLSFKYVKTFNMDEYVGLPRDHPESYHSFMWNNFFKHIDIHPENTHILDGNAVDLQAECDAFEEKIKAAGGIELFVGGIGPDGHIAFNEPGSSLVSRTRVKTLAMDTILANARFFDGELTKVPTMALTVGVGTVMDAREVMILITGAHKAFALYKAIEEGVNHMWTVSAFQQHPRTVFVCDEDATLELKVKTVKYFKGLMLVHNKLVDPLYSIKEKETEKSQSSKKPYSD
# UniProt P36969, whole entry: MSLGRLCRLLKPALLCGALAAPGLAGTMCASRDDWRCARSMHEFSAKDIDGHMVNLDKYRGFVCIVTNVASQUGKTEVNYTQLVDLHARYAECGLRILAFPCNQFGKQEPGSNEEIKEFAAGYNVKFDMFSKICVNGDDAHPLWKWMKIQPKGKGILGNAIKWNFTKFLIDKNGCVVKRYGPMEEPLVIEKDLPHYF
# The list shows a part of the results.
# Compound: COc1ccc(Cn2ccc3ccc(C(=O)NO)cc32)cc1
# Assay: dose-dependent thermal stabilisation call (2D-TPP, DLPTP, 10% FDR) (binary (1 = stabilised)); higher = stabilised by the compound
# Conditions: system: HL-60 intact cells; concentration range 0.04-10 µM
row,Target,dose-dependent thermal stabilisation call
1,HDDC3 (UniProt Q8N4P3),inactive: 0
2,GNL3 (UniProt Q9BVP2),inactive: 0
3,GYS1 (UniProt P13807),inactive: 0
4,GUF1 (UniProt Q8N442),inactive: 0
5,HLA-DRB1 (UniProt P01911),inactive: 0
6,GIT2 (UniProt Q14161),inactive: 0
7,GIGYF2 (UniProt Q6Y7W6),inactive: 0
8,GGT5 (UniProt P36269),inactive: 0
9,GNB1 (UniProt P62873),inactive: 0
10,HEL308 (UniProt Q8TDG4),inactive: 0
11,GRK6 (UniProt P43250),inactive: 0
12,GFM2 (UniProt Q969S9),inactive: 0
13,GDAP1 (UniProt Q8TB36),inactive: 0
14,HARS2 (UniProt P49590),inactive: 0
15,GMFG (UniProt O60234),inactive: 0
16,GCC1 (UniProt Q96CN9),inactive: 0
17,HDHD2 (UniProt Q9H0R4),inactive: 0
18,GIPC1 (UniProt O14908),inactive: 0
19,HDDC2 (UniProt Q7Z4H3),inactive: 0

# A run of entries from the list above, as a working copy:
row,Target,dose-dependent thermal stabilisation call
7,GIGYF2 (UniProt Q6Y7W6),inactive: 0
8,GGT5 (UniProt P36269),inactive: 0

# Following part

row,Target,dose-dependent thermal stabilisation call
1,HIST2H2BA,inactive: 0
2,GMEB1 (UniProt Q9Y692),inactive: 0
3,GFPT1 (UniProt Q06210),inactive: 0
4,GDI1 (UniProt P31150),inactive: 0
5,GOLIM4 (UniProt O00461),inactive: 0
6,GGCX (UniProt P38435),inactive: 0
7,GMIP (UniProt Q9P107),inactive: 0
8,GDF1 (UniProt P27539),inactive: 0
9,H1FX (UniProt Q92522),inactive: 0
10,GRAMD1B (UniProt Q3KR37),inactive: 0
11,GTPBP2 (UniProt Q9BX10),inactive: 0
12,GEMIN8 (UniProt Q9NWZ8),inactive: 0
13,GNPDA1 (UniProt P46926),inactive: 0
14,GPX4 (UniProt P36969),inactive: 0
15,HELZ (UniProt P42694),inactive: 0
16,GOLGA5 (UniProt Q8TBA6),inactive: 0
17,GPBP1 (UniProt Q86WP2),inactive: 0
18,GNA15 (UniProt P30679),inactive: 0
